Source: publication PMC10163288
This is one part of the list.

B1: il2ra_site1_2b5i_normal_mot_d4f58537f9d5e1f361f6ea2252377c33_0001_1_000000167_0001_1_13_H_._HHH_b1_03920_0001_0000100001_0000001_0 (protein)
chain: SSSSDALERLAKNIFEILEKALELGNEKAIERWLEMLERQAEDTNDELARELLREIREKLSSSSS
B2: il2ra_site1_2b5i_sap_15_mot_HHH_eva_0271_af2_000000019_0001_1_17_H_._b0be08dbeb19038e97ce33ab5425b229_0001_af2_0001_0000200010_0000001_0_0001_af2pred_dldesign_0 … (protein)
chain: SSSSNPLAEEARRLFLKANELYQAGKEEEAKELLKKALEIAKKGKCNSLIKAIELALKNLSSSSS
B3: il2ra_site2_3nfp_sap_22_mot_HHH_b1_07242_000000112_0001_19_39_H_._dbaaacb3030748eb94c4e142aa50db7a_0001_0001_0000400037_0000001_0_0001_af2pred_0001_1_af2pred_sw … (protein)
chain: SSSDEEERIRELLKEIEELLKEGNDEEAEELLKEAKKLIRELGDLELLEELLELEELVEEKSSSS
B4: il2ra_site2_3nfp_sap_18_mot_HHH_b2_04503_af2_000000107_0001_38_55_H_._HHH_b1_05537_0001_0000700018_0000001_0_0001 (protein)
chain: SSSSDKQEEYIRIAIEIARRAAEQGDPEVARRILETVFQAAEDANDEELLKEIEELLEELSSSSS
B5: il2ra_site1_1z92_normal_mot_HHH_b1_03515_000000289_0001_1_19_H_._HHH_b2_05697_0002_0000300039_0000001_0_af2pred_0001_af2pred_1 (protein)
chain: SSSSNERLERQLKKLVESAVELAGLSEEQKEELEELAKELAERGVDFEEAIRIVNKLALELSSSS
B6: il2ra_site2_3nfp_normal_mot_HHH_b2_05281_000000198_0001_39_56_H_._HHH_b2_06891_0001_0000100001_0000001_0 (protein)
chain: SSSSSSRERVEELLRQAEELYERGNPEEAQKLLKEATHIAYETGDHEAFFLVAEVAFRLINSSSS
B7: il2ra_site2_3nfp_sap_17_mot_HHH_b2_03978_000000149_0001_1_20_H_._HHH_b2_01702_0001_0000500046_0000001_0_0001_af2pred_0001_af2pred (protein)
chain: SSSSSDQEVRELLEEARELLEEGDPEEAEEVLLRAAEIAAELRNFELFAEVANLLEEILRSSSSS
B8: il2ra_site2_3nfp_sap_14_mot_HHH_b1_04980_af2_000000126_0001_22_39_H_._HHH_b2_07179_0001_0000200006_0000001_1_0001_af2pred_0001_1_af2pred_swapped (protein)
chain: SSSSSEEEERVEELIEKAEKLIKEGNPEEAEEVLAEAFRLALELNNEELLLLILELLERLRSSSS
B9: il2ra_site1_2b5i_sap_14_mot_HHH_b2_07920_000000157_0001_21_37_H_._HHH_b1_06326_0001_0000100002_0000001_0_0001_af2pred_dldesign_0_af2pred (protein)
chain: SSSSSIRKLIEYAKKEAEELLAEGDTEDVQNILAQLQELRDKYNDPEIEKAIAELTAALLGSSSS
B10: il2ra_site2_3nfp_sap_23_mot_HHH_b1_04762_000000120_0001_42_54_H_._HHH_b2_04281_af2_0001_0000100003_0000001_0_0001 (protein)
chain: SSSTEEEIEELLREVERLLKEGDLTEAAHLLMRASELVVELGDEELIRKVLELFEELARAYSSSS
B11: il2ra_site1_1z92_normal_mot_HHH_b2_05238_af2_000000252_0001_38_55_H_._HHH_b2_02957_af2_0001_0000400015_0000001_0 (protein)
chain: SSSSSTEEALEILAKALKRAERLGNERSLRRIAEFLLRQARDLGDEEAERFAEEIEEKVDSSSSS
B12: il2ra_site2_2erj_sap_16_mot_8a316d4779eb53efc793250774d75e68_0001_af2_000000043_0001_18_32_H_._HHH_b2_05644_af2_0001_0000700025_0000001_1_0001_af2pred_0001_1_af … (protein)
chain: SSSSDELERVVEELVEELGLDEEAKRILEAAVENLEEAGYNKELAKKWLEFAAESLARSKSSSSS
B13: il2ra_site2_3nfp_sap_20_mot_HHH_b2_03377_000000137_0001_25_41_H_._HHH_b1_08018_0001_0000100006_0000001_0_0001 (protein)
chain: DEAELAHFVFERGDWEAFAAVAELFTLLAHGDPEAEELVREALELLKEDPREVERLLKEIARELH
B14: il2ra_site1_3nfp_sap_11_mot_HHH_b2_07336_000000112_0001_1_16_H_._3b037dd319665088be879e1661a9b2f3_0001_0001_0000500036_0000001_0_0001 (protein)
chain: DDELQARHIEKLLKRAAGVESVEVEVSNNEIEVTFKGNDEAVKRAKEAVKILAEMLGIPVEIETE
B15: il2ra_site1_1z92_normal_mot_74bb627b62bb877a56547cee6c7a6e54_0001_000000029_0001_1_13_H_._HHH_b1_02142_0001_0000300047_0000001_0 (protein)
chain: SSSSDLERAAVELVSRIAAEFGLDWEQLKELDELAVELAERGLSEEEIREELEELAEELRSSSSS
B16: il2ra_site2_3nfp_normal_mot_HHH_b1_06646_000000103_0001_1_16_H_._15a03ae7649ebbac21f4683df9edff8e_0001_0001_0000200007_0000001_0 (protein)
chain: PVEELVREVAEILGDPRFKETVEEFLEELEKEGNEDSLEYIEAALALIVEFNDPELAERLLELLD
B17: il2ra_site1_2b5i_normal_mot_HHH_b1_01495_af2_000000196_0001_42_56_H_._774661e93fca9bd06ae450e02c4594cb_0001_1_0001_0000500020_0000001_0_af2pred_dldesign_0_af2pr … (protein)
chain: SVVDRTIEWLDRAGHPELAAACRRIAELCAAGRPEEARKLVEEAKKKYKSKFHKKLLEEVYEECL
B18: il2ra_site1_3nfp_normal_mot_HHH_b1_03004_000000248_0001_1_18_H_._HHH_b1_01445_0001_0000100007_0000001_0 (protein)
chain: SSSSSNAELRRRIDELLKELARITDPHEFEELVEEIEELIEEAGDENARRLLEELRKLFNSSSSS
B19: il2ra_site2_2erj_sap_23_mot_HHH_eva_0050_af2_000000198_0001_43_62_H_._HHH_b1_06467_0001_0000100002_0000001_0_0001 (protein)
chain: SSSSSNLRELYELANKIMHALQRNDEELARELIEEAREAIERLGSDNARELLEWLRREVNSSSSS
B20: il2ra_site2_3nfp_normal_mot_HHH_b2_05401_000000221_0001_38_56_H_._HHH_b2_03321_0001_0000200011_0000001_0 (protein)
chain: SSSSSEEEFLHSVARAAEKLAEHLEDPELREELERLAEELKEEGDPELAHEIFELAIEIFSSSSS
B21: il2ra_site1_2b5i_normal_mot_HHH_b1_08426_af2_000000046_0001_39_52_H_._HHH_b1_04114_af2_0001_0000100006_0000001_0_af2pred_dldesign_0_af2pred (protein)
chain: SSSSSDEDEEKVYDLADEALRIRKEDPEKAREILEEALKLAKAAGNAKLVAEVEALLASISSSSS
B22: il2ra_site2_3nfp_normal_mot_b0be08dbeb19038e97ce33ab5425b229_0001_000000099_0001_16_33_H_._HHH_b2_02124_0001_0000500034_0000001_0_af2pred_0001_1_af2pred_swapped (protein)
chain: SSSSNEEDKLLLVERLAELAIEHTSDEEEQEELEELLEELERKGDPRIAEELARIASEILLSSSS
B23: il2ra_site2_2erj_sap_24_mot_HHH_b1_07975_000000000_0001_41_57_H_._HHH_b1_08466_af2_0001_0000800020_0000001_0_0001_af2pred_0001_af2pred (protein)
chain: SSSSSEEEEELKEFIEELVREFGLSEEVQKELEEIARFALEQGIDEEDIKKWLKLFAEETSSSSS
B24: il2ra_site2_3nfp_normal_mot_HHH_b1_01243_000000091_0001_42_57_H_._5f20bd37ef72b54d9d5808571b4331c8_0001_0001_0000500071_0000001_0 (protein)
chain: GPSELIYELFKEDEELAFLLWALRAEVAITNDPRLEELLREALELIEEGNPEEAKEVLREALRLP

Biological target: il2ra, P01589
Test: yeast display titration

Apparent Kd, inactive:
B1 no binding seen
B2 no binding seen
B3 no binding seen
B4 no binding seen
B5 no binding seen
B6 no binding seen
B7 no binding seen
B8 no binding seen
B9 no binding seen
B10 no binding seen
B11 no binding seen
B12 no binding seen
B13 no binding seen
B14 no binding seen
B15 no binding seen
B16 no binding seen
B17 no binding seen
B18 no binding seen
B19 no binding seen
B20 no binding seen
B21 no binding seen
B22 no binding seen
B23 no binding seen
B24 no binding seen

Quoted at random: 2 records from the list, in no set order.
Apparent Kd, inactive:
B18 no binding seen
B24 no binding seen
